Experimental data as given in US20130122024A1 (Bayer Intellectual Property GmbH, priority 2011, published 2013).

Assay: general procedure: solution-phase peptide synthesis; HATU/N,N-diisopropylethylamine; EDC hydrochloride/HOBt hydrate/N,N-diisopropylet
Conditions: trifluoroacetate
[1] = late stage modification step, over 2 stages

N-(6-{[(5S)-5-Amino-5-carboxypentyl]amino}-6-oxohexyl)-N-methyl-L-threonyl-N-[(3R,4S,5S)-1-{(2S)-2-[(1R,2R)-3-{[(2S)-3-(1H-indol-3-yl)-1-(1,2-oxazinan-2-yl)-1-oxopropan-2-yl]amino}-1-methoxy-2-methyl-3-oxopropyl]pyrrolidin-1-yl}-3-methoxy-5-methyl-1-oxoheptan-4-yl]-N-methyl-L-valinamide trifluoroacetate
step yield (late stage modification step): 47% of theory

N-(6-aminohexyl)-N-methyl-L-valyl-N-[(3R,4S,5S)-3-methoxy-1-{(2S)-2-[(1R,2R)-1-methoxy-2-methyl-3-{[(2S,3S)-1-(1,2-oxazinan-2-yl)-1-oxo-3-phenylbutan-2-yl]amino}-3-oxopropyl]pyrrolidin-1-yl}-5-methyl-1-oxoheptan-4-yl]-N-methyl-L-valinamide
step yield [1]: 63% of theory over 2 stages

N-(4-{2-[6-(3-{[(2R)-2-Amino-2-carboxyethyl]sulphanyl}-2,5-dioxopyrrolidin-1-yl)hexanoyl]hydrazino}-4-oxobutyl)-N-methyl-L-valyl-N-[(3R,4S,5S)-1-{(2S)-2-[(1R,2R)-3-{[(2S)-1-amino-3-(1H-indol-3-yl)-1-oxopropan-2-yl]amino}-1-methoxy-2-methyl-3-oxopropyl]pyrrolidin-1-yl}-3-methoxy-5-methyl-1-oxoheptan-4-yl]-N-methyl-L-valinamide
step yield (late stage modification step): 48% of theory

N-(6-aminohexyl)-N-methyl-L-valyl-N-[(3R,4S,5S)-1-{(2S)-2-[(1R,2R)-3-{[(1S,2R)-1-(1,4-dihydro-3H-2,3-benzoxazin-3-ylcarbonyl)-2-phenylcyclopropyl]amino}-1-methoxy-2-methyl-3-oxopropyl]pyrrolidin-1-yl}-3-methoxy-5-methyl-1-oxoheptan-4-yl]-N-methyl-L-valinamide
step yield [1]: 23% of theory over 2 stages

N-(tert-butoxycarbonyl)-N-methyl-L-valyl-N-[(3R,4S,5S)-1-{(2S)-2-[(1R,2R)-3-(benzyloxy)-1-methoxy-2-methyl-3-oxopropyl]pyrrolidin-1-yl}-3-methoxy-5-methyl-1-oxoheptan-4-yl]-N-methyl-L-valinamide
step yield (coupling step): 55% of theory

N-[(9H-fluoren-9-ylmethoxy)carbonyl]-N-methyl-L-valyl-N-[(3R,4S,5S)-3-methoxy-1-{(2S)-2-[(1R,2R)-1-methoxy-2-methyl-3-{[(1S,2R)-1-(1,2-oxazinan-2-ylcarbonyl)-2-phenylcyclopropyl]amino}-3-oxopropyl]pyrrolidin-1-yl}-5-methyl-1-oxoheptan-4-yl]-N-methyl-L-valinamide
step yield (coupling step): 59% of theory

N-(6-{[(5S)-5-Amino-5-carboxypentyl]amino}-6-oxohexyl)-N-methyl-L-valyl-N-[(3R,4S,5S)-1-{(2S)-2-[(1R,2R)-3-{[(2S)-3-(1H-indol-3-yl)-1-(1,2-oxazinan-2-yl)-1-oxopropan-2-yl]amino}-1-methoxy-2-methyl-3-oxopropyl]pyrrolidin-1-yl}-3-methoxy-5-methyl-1-oxoheptan-4-yl]-N-methyl-L-valinamide trifluoroacetate
step yield (late stage modification step): 97% of theory
